According to the supplement of paper PMC11348887:
Structures can show the parent of a compound that is named as a salt. Some of the results follow. Small differences around the control level are noise.

Legend:
Conditions in all cases: 5 µM; treatment: days 7-14 after plating, readout day 21
[1] = system: hPSC-derived cortical neurons (WA09); test: nucleus area z-score vs screen plate; higher = larger nuclei (more mature)
[2] = system: hPSC-derived cortical neurons (WA09); test: total neurite length per nucleus (MAP2) z-score; higher = more neurite growth
[3] = system: hPSC-derived cortical neurons (WA09); test: nucleus roundness z-score vs screen plate; higher = rounder nuclei (more mature)
[4] = system: hPSC-derived cortical neurons (WA09); test: KCl-induced FOS+/EGR-1+ double-positive nuclei fraction z-score (KCl minus unstimulated); higher = stronger activity-induced IEG response

Row | SMILES | nucleus area z-score [1] | total neurite length per nucleus (z-score) [2] | nucleus roundness z-score [3] | KCl-induced FOS+/EGR-1+ double-positive nuclei fraction z-score [4]
1 | CN(CCOc1ccc(CC2SC(=O)NC2=O)cc1)c1ccccn1 (stereo not given) [Rosiglitazone HCl] | 0.858 | -1.41 | -0.724 | -0.151
2 | CN(C)/N=N/c1[nH]cnc1C(N)=O [Dacarbazine] | 0.731 | -0.321 | -0.132 | 0.441
3 | O=C(O)CSc1cc(NS(=O)(=O)c2ccc(Br)cc2)c2ccccc2c1O | -2.14 | -0.867 | -2.72 | -0.137
4 | O=c1[nH]c(=O)c2ccccc2o1 [Carsalam] | -0.293 | -0.4 | -0.00127 | 0.0787
5 | O=C([O-])C(O)[C@H](O)[C@@H](O)[C@H](O)[C@H](O)CO.O=C([O-])C(O)[C@H](O)[C@@H](O)[C@H](O)[C@H](O)CO.[Ca+2] (stereo not given in full) [Calcium Gluceptate] | -0.598 | 0.787 | 0.57 | 0.343
6 | CC(C)[C@H](C(=O)Nc1ccc(C(=O)NO)cc1)c1ccccc1 | -17.1 | -6.43 | -7.86 | -1.58
7 | CN(Cc1cc(Br)cc(Br)c1N)C1CCCCC1 [Bromhexine HCl] | 0.103 | -1.02 | -1.45 | -1.31
8 | CN[C@@H]1[C@H](O[C@H]2[C@H](O[C@H]3[C@H](O)[C@@H](O)[C@H](NC(=N)N)[C@@H](O)[C@@H]3NC(=N)N)O[C@@H](C)[C@]2(O)CO)O[C@@H](CO)[C@H](O)[C@H]1O [Dihydrostreptomycin sulfate] | 1.49 | 1.32 | 0.759 | 0.225
9 | Cc1cc(Nc2ccc(NC(=O)c3ccc(Nc4ccnc5ccccc45)cc3)cc2)nc(N)n1 | -12.1 | -3.74 | -1.61 | -6.99
10 | COCCCOc1ccnc(C[S+]([O-])c2nc3ccccc3[nH]2)c1C (stereo not given) [Rebeprazole sodium] | 2.4 | -0.484 | -0.26 | 0.00802
11 | CC1(C)S[C@@H]2[C@H](NC(=O)[C@H](N)c3ccccc3)C(=O)N2[C@H]1C(=O)O [Ampicillin Trihydrate] | -1.42 | -1.29 | -3.47 | 1.29
12 | CC(C)c1noc(N2CCC(COc3ccc(-c4ccc(S(C)(=O)=O)cc4)nc3)CC2)n1 | -0.144 | 0.555 | 0.558 | 0.326
13 | O=C(O)CCNc1cc(N2CCc3ccccc3CC2)nc(-c2ccccn2)n1 | -0.235 | 1.19 | 0.172 | -0.334
14 | CCc1ccc(CCOc2ccc(CC3SC(=O)NC3=O)cc2)nc1 (stereo not given) [Pioglitazone] | -0.104 | 0.914 | 0.103 | 0.662
15 | CN[C@@H]1[C@H](O[C@H]2[C@H](O[C@H]3[C@H](O)[C@@H](O)[C@H](N=C(N)N)[C@@H](O)[C@@H]3N=C(N)N)O[C@@H](C)[C@]2(O)C=O)O[C@@H](CO)[C@H](O)[C@H]1O [Streptomycin sulfate] | -0.413 | 0.917 | 0.408 | -0.0906
16 | O=C(NC1CC1)c1cc(-c2cccs2)on1 [Isoxazole 9 (ISX-9)] | 0.265 | 2.12 | 1.69 | 3
17 | Cn1cc(C2=C(c3cn(CCCSC(=N)N)c4ccccc34)C(=O)NC2=O)c2ccccc21 [Ro 31-8220 Mesylate] | -15.1 | -6 | -9.36 | 3.46
18 | CC(C)C[C@H](NC(=O)c1cc2ccccc2s1)C(=O)N1CCN(C(=O)[C@H](CO)NS(=O)(=O)c2ccc(Cl)cc2Cl)CC1 | 0.0637 | -0.226 | -0.484 | -0.467
19 | CCN(CC)CCCC(C)Nc1nc(C)cc(Nc2ccc3nc(C)cc(N)c3c2)n1 (stereo not given) | -0.939 | -0.557 | -0.117 | -0.998
20 | Cc1nc2c(-c3cnc(N)nc3)nc(N3CCOCC3)nc2n1C(C)C | -6.12 | -2.63 | -2.18 | 0.675
21 | C/C=C1/[C@H](O[C@@H]2O[C@H](CO)[C@@H](O)[C@H](O)[C@H]2O)OC=C(C(=O)OC)[C@H]1CC(=O)OCCc1ccc(O)c(O)c1 [Oleuropein] | 0.213 | -0.015 | -0.187 | 1.32
22 | CN1CCC(NC(=O)c2cc(-c3c(O)cc(O)cc3Oc3ccc([N+](=O)[O-])cc3)on2)CC1 | -8.36 | -3.7 | -4.52 | -0.747
23 | Oc1c(I)cc(Cl)c2cccnc12 [Clioquinol] | -0.394 | 1.41 | 0.74 | 1
24 | CC(=O)Nc1ccc(NC(=S)NC(=O)c2ccc(C(C)(C)C)cc2)cc1 [Tenovin-1] | 0.26 | 1.11 | 1 | 0.25
25 | CC(C)Nc1cc(-c2c[nH]c(C(=O)N[C@H](CO)c3cccc(Cl)c3)c2)c(Cl)cn1 | -0.216 | -0.775 | -0.411 | -1.62

Sorted by molecular weight (descending): four of the compounds above
Row | SMILES | nucleus area z-score [1] | total neurite length per nucleus (z-score) [2] | nucleus roundness z-score [3] | KCl-induced FOS+/EGR-1+ double-positive nuclei fraction z-score [4]
8 | CN[C@@H]1[C@H](O[C@H]2[C@H](O[C@H]3[C@H](O)[C@@H](O)[C@H](NC(=N)N)[C@@H](O)[C@@H]3NC(=N)N)O[C@@H](C)[C@]2(O)CO)O[C@@H](CO)[C@H](O)[C@H]1O [Dihydrostreptomycin sulfate] | 1.49 | 1.32 | 0.759 | 0.225
25 | CC(C)Nc1cc(-c2c[nH]c(C(=O)N[C@H](CO)c3cccc(Cl)c3)c2)c(Cl)cn1 | -0.216 | -0.775 | -0.411 | -1.62
19 | CCN(CC)CCCC(C)Nc1nc(C)cc(Nc2ccc3nc(C)cc(N)c3c2)n1 (stereo not given) | -0.939 | -0.557 | -0.117 | -0.998
7 | CN(Cc1cc(Br)cc(Br)c1N)C1CCCCC1 [Bromhexine HCl] | 0.103 | -1.02 | -1.45 | -1.31
